# Earlier results as cited in US20230277444A1, “FORMULATIONS OF PTHrP ANALOGUES, TRANSDERMAL PATCHES THEREOF, AND USES THEREOF” (priority 2018, published 2023).
# At least one peptide structure holds a part that was inferred or is arguable (an end, a ring closure or a residue).
# Assays:
# [1] = test system: ovariectomy-induced osteopenic rats; conditions: cited from earlier work
# [2] = test system: ovariectomy-induced osteopenic monkeys; conditions: cited from earlier work
# treated subjects = conditions: subcutaneous administration; cited from earlier work
compound,measurement,setting,value
"CC[C@H](C)[C@H](NC(=O)[C@H](CO)NC(=O)[C@H](CCCCN)NC(=O)CNC(=O)[C@H](CCCCN)NC(=O)[C@H](CC(=O)O)NC(=O)[C@H](Cc1c[nH]cn1)NC(=O)[C@H](CC(C)C)NC(=O)[C@H](CC(C)C)NC(=O)[C@H](CCC(N)=O)NC(=O)[C@H](Cc1c[nH]cn1)NC(=O)[C@H](CCC(=O)O)NC(=O)[C@H](CO)NC(=O)[C@@H](NC(=O)[C@H](C)N)C(C)C)C(=O)N[C@@H](CCC(N)=O)C(=O)N[C@@H](CC(=O)O)C(=O)N[C@@H](CC(C)C)C(=O)N[C@@H](CCCNC(=N)N)C(=O)N[C@@H](CCCNC(=N)N)C(=O)N[C@@H](CCCNC(=N)N)C(=O)N[C@@H](CCC(=O)O)C(=O)N[C@@H](CC(C)C)C(=O)N[C@@H](CC(C)C)C(=O)N[C@@H](CCC(=O)O)C(=O)N[C@@H](CCCCN)C(=O)N[C@@H](CC(C)C)C(=O)N[C@@H](CC(C)C)C(=O)NC(C)(C)C(=O)N[C@@H](CCCCN)C(=O)N[C@@H](CC(C)C)C(=O)N[C@@H](Cc1c[nH]cn1)C(=O)N[C@H](C(=O)N[C@@H](C)C(N)=O)[C@@H](C)O [Abaloparatide, [Glu^22,25, Leu^23,28,31, Aib^29, Lys^26,30]hPTHrP(1-34)NH2]",bone loss,[1],complete reversal of bone loss
same,bone loss,[2],complete reversal of bone loss
same,"BMD and/or TBS at the lumbar spine, total hip, and femoral neck",treated subjects,improve bone mineral density (BMD) and/or trabecular bone score (TBS)
